Laboratory results: patent US12528778B2, “Microbiocidal derivatives” (SYNGENTA CROP PROTECTION AG, priority 2019, dated 2026)
Some of these results come from one statement about several compounds together.

What was measured:
Phakopsora pachyrhizi = Phakopsora pachyrhizi / soybean / preventative (soybean rust); assay type: in vivo; conditions: 200 ppm; soybean leaf disks, inoculated one day after application, assessed 12-14 days after application; vs untreated control
Pyrenophora teres = Pyrenophora teres / barley / leaf disc preventative (net blotch); assay type: in vivo; conditions: 200 ppm; barley leaf segments cv. Hasso, inoculated 2 days after application, assessed 5-7 days after application; vs untreated control
Sclerotinia sclerotiorum = Sclerotinia sclerotiorum / liquid culture (cottony rot); assay type: cell-based; conditions: 20 ppm; PDB liquid culture of mycelia fragments, 24° C., growth inhibition determined photometrically 3-4 days after application; vs untreated control
[1] = tested on: Phaeosphaeria nodorum (Septoria nodorum); experiment: Phaeosphaeria nodorum (Septoria nodorum) / wheat / leaf disc preventative (glume blotch); assay type: in vivo; conditions: 200 ppm; wheat leaf segments cv. Kanzler, inoculated 2 days after application, assessed 5-7 days after application; vs untreated control

SMILES	control of Phakopsora pachyrhizi (Phakopsora pachyrhizi)	control of Pyrenophora teres (Pyrenophora teres)	control of Sclerotinia sclerotiorum (Sclerotinia sclerotiorum)	control of Phaeosphaeria nodorum [1]
COc1ncc(Nc2ccccc2)nc1C(=O)NC1CCC1(C)C (centres unmarked) [Compound P-4, 6-anilino-N-(2,2-dimethylcyclobutyl)-3-methoxy-pyrazine-2-carboxamide]	at least 80%			
COc1ncc(Nc2cccc(F)c2)nc1C(=O)NC1CCC1(C)C (centres unmarked) [Compound P-5, N-(2.2-dimethylcyclobutyl)-6-(3-fluoroanilino)-3-methoxy-pyrazine-2-carboxamide]		at least 80%	at least 80%	
COc1ncc(Nc2cnsc2)nc1C(=O)NCc1ccc(Oc2ccccc2)cc1 [Compound P-13, 6-(isothiazol-4-ylamino)-3-methoxy-N-[(4-phenoxyphenyl)methyl] pyrazine-2-carboxamide]			at least 80%	
COc1ncc(Nc2cc(F)cc(F)c2)nc1C(=O)NC1COC2(CC2)C1 (centres unmarked) [Compound P-20, 6-(3,5-difluoroanilino)-3-methoxy-N-(4-oxaspiro[2.4]heptan-6-yl)pyrazine-2-carboxamide]			at least 80%	
COc1ncc(Nc2cc(F)cc(F)c2)nc1C(=O)NCC1(C)CCOC2(CCC2)C1 (centres unmarked) [Compound P-22, 6-(3,5-difluoroanilino)-3-methoxy-N-[(8-methyl-5-oxaspiro[3.5]nonan-8-yl)methyl]pyrazine-2-carboxamide]			at least 80%	
COc1ncc(Nc2cc(F)cc(F)c2)nc1C(=O)NCC1(C(F)(F)F)CC1 [Compound P-25, 6-(3,5-difluoroanilino)-3-methoxy-N-[[1-(trifluoromethyl)cyclopropyl]methyl] pyrazine-2-carboxamide]		at least 80%		
COc1ncc(Nc2cc(F)cc(F)c2)nc1C(=O)NCc1cccc2c1OC(F)(F)O2 [Compound P-29, 6-(3,5-difluoroanilino)-N-[(2,2-difluoro-1.3-benzodioxol-4-yl)methyl]-3-methoxy-pyrazine-2-carboxamide]				at least 80%
COc1ncc(Nc2cc(F)cc(F)c2)nc1C(=O)NC1(C)CC1 [Compound P-37, 6-(3,5-difluoroanilino)-3-methoxy-N-(1-methylcyclopropyl) pyrazine-2-carboxamide]	at least 80%	at least 80%		
COc1ncc(Nc2cc(F)cc(F)c2)nc1C(=O)NC(C)(C)C [Compound P-38, N-tert-butyl-6-(3,5-difluoroanilino)-3-methoxy-pyrazine-2-carboxamide]	at least 80%	at least 80%	at least 80%	at least 80%
COc1ncc(Nc2cc(F)cc(F)c2)nc1C(=O)NCC(C)(C)C [Compound P-39, 6-(3,5-difluoroanilino)-N-(2,2-dimethylpropyl)-3-methoxy-pyrazine-2-carboxamide]		at least 80%		at least 80%
COc1ncc(Nc2cnsc2)nc1C(=O)NC1CCC1(C)C (centres unmarked) [Compound P-42, (isothiazol-4-ylamino)-N-(2,2-dimethylcyclobutyl)-6-3-methoxy-pyrazine-2-carboxamide]			at least 80%	
COc1ncc(Nc2cc(F)cc(F)c2)nc1C(=O)NC1CCC1(C)C (centres unmarked) [Compound P-43, 6-(3,5-difluoroanilino)-N-(2,2-dimethylcyclobutyl)-3-methoxy-pyrazine-2-carboxamide]	at least 80%	at least 80%		at least 80%
